Measurements reported in PubChem BioAssay AID1508588 (Peter MacCallum Cancer Centre, 2020)
Test: 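Knock-downs boosting vemurafenib effects on melanoma cell growth or lactate release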 (primary screen). Cell system: human WM266.4 melanoma cells (BRAF V600 mutant). Reagent: siRNA pool against human genes, 40 nM. Timing: 96 h from transfection to read-out. Conditions: vemurafenib 300 nM (about IC25), added 48 h after transfection, for 48 h; comparison arm got DMSO vehicle only. Read-out: 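Ratios to non-targeting siRNA for cell gain, counted as DAPI nuclei after minus before drug and averaged over two replicates, and for absorbance-read medium lactate per cell; both binned into fold-change classes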. Reading the numbers: cell gain with vemurafenib: higher = more cell gain than with non-targeting siRNA; lactate per cell with vemurafenib: higher = more lactate made per cell. Call rule: 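a knock-down counts as enhancing when its fold-change classes with vehicle and with vemurafenib, taken together, show a stronger drug effect on cell gain or lactate per cell; exact class pairs not stated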. Calls: active = enhances vemurafenib effect; inactive = no enhancement seen.
The whole screen tested about 18,000 reagents; shown is an unselected part. In the full data, 790 (4.4%) are marked active. 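Calls rest on a combination of fold-change classes in drug and vehicle arms, not all shown here.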

no.	target gene	cell gain with vemurafenib	lactate per cell with vemurafenib	call
1	GON4L	-0.01	1.46	inactive
2	LMCD1	0.72	0.48	inactive
3	DELE1	0.64	0.66	inactive
4	APOBEC3G	0.55	1.52	inactive
5	MTCP1	0.23	1.62	inactive
6	NSUN5P1	0.13	1.26	inactive
7	UTP25	0.25	0.76	inactive
8	DIO3	0.72	0.7	inactive
9	ARAF	0.67	0.8	inactive
10	UBE2D3	0.13	0.74	inactive
11	TPI1	0.96	0.87	inactive
12	SH2D6	1.12	0.9	inactive
13	RAG2	0.39	1.27	inactive
14	CTTNBP2NL	0.17	1.31	active
15	SERPINA7	0.66	2.34	inactive
16	ARRDC1-AS1	0.7	1.29	inactive
17	CUX1	1.02	0.56	inactive
18	IL13	0.61	0.55	inactive
19	HSPE1	0.72	1.12	inactive
20	SUPT7L	0.99	0.7	inactive
21	SEMA4G	-0.06	6.87	inactive
22	MAGEC1	0.44	1.01	inactive
23	RGS17	0.3	1.77	inactive
24	ALPK3	0.1	1.98	inactive
25	MED30	0.55	0.64	inactive
26	CLASP2	0.68	0.54	inactive
27	STAG3L3	0.84	0.74	inactive
28	CCL3	0.18	0.62	active
29	OR51L1	0.39	1	inactive
30	BPHL	0.84	1.6	inactive
31	CHFR	1.02	0.77	inactive
32	TUBA4A	0.21	1.19	inactive
33	ZNF175	1.07	0.52	inactive
34	CCDC185	0.55	1.08	inactive
35	LIPK	0.63	0.78	inactive
36	IFI27L2	0.03	2.88	inactive
37	RPS13	-0.13	-0.32	inactive
38	PTPRZ1	1.06	1	inactive
39	DNAJC28	0.78	0.85	inactive
40	DEFB125	0.89	0.39	inactive
41	CETP	0.87	0.84	inactive
42	RBCK1	1.25	0.75	inactive
43	RAB18	0.86	1.02	inactive
44	FANCD2OS	1.09	1.33	inactive
45	ZKSCAN3	0.78	0.68	inactive
46	DHX38	0.57	0.82	inactive
47	STYK1	0.28	0.72	inactive
48	ATP1A4	0.58	0.81	inactive
49	SNX18	0.13	1.31	inactive
50	ZNF780B	0.51	1.5	inactive
51	ZBTB18	1.22	0.66	inactive
52	TMPRSS7	0.18	1.86	inactive
53	OAT	0.74	0.86	inactive
54	NMD3	1.15	0.72	inactive
55	UCK1	1.29	0.6	inactive
56	TRIAP1	1.05	1.16	inactive
57	ARFGAP2	0.55	0.58	inactive
58	SLC30A5	0.68	0.74	inactive
59	PXK	0.36	1.15	inactive
60	LGALS9B	0.3	0.66	inactive
61	CENPN	0.2	0.44	inactive
62	MMP15	0.23	1.06	inactive
63	LYSMD1	0.7	0.73	inactive
64	OR5A1	0.87	0.76	inactive
65	ECHDC3	0.71	0.91	inactive
66	SNAP29	0.31	1.5	inactive
67	ILKAP	0.72	1.23	inactive
68	ARNT2	0.55	0.92	inactive
69	VRK2	0.56	0.74	inactive
70	PCGF3	0.92	0.83	inactive
71	UBE2V2	0.7	0.84	inactive
72	SUN3	0.99	0.38	inactive
73	CT47A6	1.01	0.41	active
74	OR2T4	0.91	0.5	inactive
75	POU4F1	0.45	0.6	inactive
76	PLCB2	0.39	0.71	inactive
77	DCAF15	0.85	1.43	inactive
78	DCTN6	0.33	0.55	inactive
79	CT47A11	0.83	0.98	inactive
80	TLDC2	0.85	1.04	inactive
81	EEF1A1	0.15	2.28	inactive
82	MAPK14	1.27	0.71	inactive
83	ZNF474	0.73	0.87	inactive
84	MSI1	0.62	0.59	inactive

6 of these entries, reformatted.
| target gene | cell gain with vemurafenib | lactate per cell with vemurafenib | call |
| --- | --- | --- | --- |
| TMPRSS7 | 0.18 | 1.86 | inactive |
| OAT | 0.74 | 0.86 | inactive |
| NMD3 | 1.15 | 0.72 | inactive |
| UCK1 | 1.29 | 0.6 | inactive |
| TRIAP1 | 1.05 | 1.16 | inactive |
| ARFGAP2 | 0.55 | 0.58 | inactive |
